Biological target: NGF (nerve growth factor) (Homo sapiens) (UniProt P01138)
Assay: activity in cells
Conditions: 2'-F C and U; 2'-OH G; 2'-H (deoxy) A; TF-1 cell proliferation inhibition; purified recombinant protein; protein details: R&D Systems

The chains behind the UniProt entries cited, without tags or fusion partners. Residues count along the entry.
UniProt P01138, 122-241: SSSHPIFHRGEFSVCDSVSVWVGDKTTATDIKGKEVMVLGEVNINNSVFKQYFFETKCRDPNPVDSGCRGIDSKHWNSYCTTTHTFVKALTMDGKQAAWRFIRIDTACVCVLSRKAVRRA

GGGUCCUGUCGCUAAGUUUCCGUCUUUGCGGCUGUUACCC [SEQ ID NO: 84]
IC50: > 10 nM
